PubChem BioAssay AID1224826 – NIAID – 2016
The deposit covers about 17,000 reagents; shown is an unselected part. In the full data, about 1,110 (6.6%) got an active call. 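Active means lowered or raised reporter signal; replicate intensities are raw and not normalised per plate.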 Further read-outs or replicates are left out here.

- Screen: 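Regulators of Tlr4 signalling leading to Tnf-alpha expression in macrophages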 (primary screen)
- System: RAW264.7 G9 macrophages from mouse bearing reporters for p65 (GFP) and the Tnf promoter (mCherry)
- Reagent: siRNA pool against mouse genes, 100 nM
- Time to read-out: 16 h of LPS stimulation, after 2 days of siRNA transfection
- Challenge: bacterial lipopolysaccharide (Salmonella minnesota R595), 10 ng/ml
- Measured: 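Imaged Tnf reporter mCherry in nuclei, minus background, normalised per plate to the median and expressed as robust z-scores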
- Direction: Tnf reporter robust z-score: higher = stronger Tnf promoter reporter signal after LPS
- Rule for the call: 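Called active when robust z-score is at most -1.3, matching the median of the Tlr4 knock-down control, or over 3; control wells and wells with under 50 cells never active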
- Meaning of the calls: active = Tnf reporter clearly lowered or raised; inactive = no clear change in Tnf reporter

gene knocked down | Tnf reporter robust z-score | fewer than 50 cells in well | activity call
Tssk6 | 0.25 | enough cells in well | inactive
Or1f19 | 1.56 | enough cells in well | inactive
Mansc4 | -0.3 | enough cells in well | inactive
Oas1e | -0.78 | enough cells in well | inactive
H2-M9 | -0.18 | enough cells in well | inactive
Slc67a1 | 2.44 | enough cells in well | inactive
Pogk | -0.86 | enough cells in well | inactive
Coq10b | -1.24 | enough cells in well | inactive
6030498E09Rik | 0.35 | enough cells in well | inactive
Top1mt | -0.27 | enough cells in well | inactive
Rbp1 | 2.37 | enough cells in well | inactive
Niban1 | 0.84 | enough cells in well | inactive
Hsd3b4 | -0.76 | enough cells in well | inactive
Mpst | 1.18 | enough cells in well | inactive
Syt4 | 2.41 | enough cells in well | inactive
Cd63 | -0.3 | enough cells in well | inactive
Ovca2 | 1.7 | enough cells in well | inactive
1700088E04Rik | -0.43 | enough cells in well | inactive
Rab38 | -0.51 | enough cells in well | inactive
Saa3 | 0.74 | enough cells in well | inactive
Selenok | 0.26 | enough cells in well | inactive
Dlk2 | 0.01 | enough cells in well | inactive
Acta1 | 0.87 | enough cells in well | inactive
Aurkb | -0.8 | enough cells in well | inactive
Ifnl3 | -0.38 | enough cells in well | inactive
Idh1 | -0.5 | enough cells in well | inactive
Cox6b2 | -0.56 | enough cells in well | inactive
Or1e25 | -1.25 | enough cells in well | inactive
Sema6d | -1.2 | enough cells in well | inactive
Nxpe2 | 0.51 | enough cells in well | inactive
Uba7 | 0.3 | enough cells in well | inactive
Dync1h1 | 0.73 | enough cells in well | inactive
Or51s1 | – | fewer than 50 cells per well; well left out of calls | inactive
Tmtc1 | 0.36 | enough cells in well | inactive
Rhobtb3 | -0.12 | enough cells in well | inactive
Omp | -0.64 | enough cells in well | inactive
Map3k9 | 0.23 | enough cells in well | inactive
Vsig4 | -0.06 | enough cells in well | inactive
Dhx35 | -0.54 | enough cells in well | inactive
Or4k51 | 1.18 | enough cells in well | inactive
Brcc3dc | 1.11 | enough cells in well | inactive
Rftn1 | – | fewer than 50 cells per well; well left out of calls | inactive
Skic2 | -0.69 | enough cells in well | inactive
Gps2 | – | fewer than 50 cells per well; well left out of calls | inactive
Cfap43 | 0.04 | enough cells in well | inactive
X99300 (retired record) | 2.77 | enough cells in well | inactive
Prdx4 | -0.92 | enough cells in well | inactive
Shisa5 | 0.93 | enough cells in well | inactive
Fkbp4 | 0.04 | enough cells in well | inactive
Mmel1 | -0.75 | enough cells in well | inactive
Rnh1 | -1.04 | enough cells in well | inactive
Hoga1 | – | fewer than 50 cells per well; well left out of calls | inactive
Prkca | – | fewer than 50 cells per well; well left out of calls | inactive
Rasl2-9 | 1.81 | enough cells in well | inactive
Cenatac | 2.63 | enough cells in well | inactive
Nploc4 | 0.86 | enough cells in well | inactive
Mtmr1 | 0.57 | enough cells in well | inactive
Rnf113a1 | – | fewer than 50 cells per well; well left out of calls | inactive
